# Assay results as given in the supplement of paper PMC12823440, “Inhibitors supercharge kinase turnover through native proteolytic circuits” (Nature, 2025).
# Chains of the proteins cited; added tags and fusions are not shown. Lines headed by an entry give the natural chain unless they say otherwise; changes in a name come on top.
# UniProt P07949, whole entry, looked up: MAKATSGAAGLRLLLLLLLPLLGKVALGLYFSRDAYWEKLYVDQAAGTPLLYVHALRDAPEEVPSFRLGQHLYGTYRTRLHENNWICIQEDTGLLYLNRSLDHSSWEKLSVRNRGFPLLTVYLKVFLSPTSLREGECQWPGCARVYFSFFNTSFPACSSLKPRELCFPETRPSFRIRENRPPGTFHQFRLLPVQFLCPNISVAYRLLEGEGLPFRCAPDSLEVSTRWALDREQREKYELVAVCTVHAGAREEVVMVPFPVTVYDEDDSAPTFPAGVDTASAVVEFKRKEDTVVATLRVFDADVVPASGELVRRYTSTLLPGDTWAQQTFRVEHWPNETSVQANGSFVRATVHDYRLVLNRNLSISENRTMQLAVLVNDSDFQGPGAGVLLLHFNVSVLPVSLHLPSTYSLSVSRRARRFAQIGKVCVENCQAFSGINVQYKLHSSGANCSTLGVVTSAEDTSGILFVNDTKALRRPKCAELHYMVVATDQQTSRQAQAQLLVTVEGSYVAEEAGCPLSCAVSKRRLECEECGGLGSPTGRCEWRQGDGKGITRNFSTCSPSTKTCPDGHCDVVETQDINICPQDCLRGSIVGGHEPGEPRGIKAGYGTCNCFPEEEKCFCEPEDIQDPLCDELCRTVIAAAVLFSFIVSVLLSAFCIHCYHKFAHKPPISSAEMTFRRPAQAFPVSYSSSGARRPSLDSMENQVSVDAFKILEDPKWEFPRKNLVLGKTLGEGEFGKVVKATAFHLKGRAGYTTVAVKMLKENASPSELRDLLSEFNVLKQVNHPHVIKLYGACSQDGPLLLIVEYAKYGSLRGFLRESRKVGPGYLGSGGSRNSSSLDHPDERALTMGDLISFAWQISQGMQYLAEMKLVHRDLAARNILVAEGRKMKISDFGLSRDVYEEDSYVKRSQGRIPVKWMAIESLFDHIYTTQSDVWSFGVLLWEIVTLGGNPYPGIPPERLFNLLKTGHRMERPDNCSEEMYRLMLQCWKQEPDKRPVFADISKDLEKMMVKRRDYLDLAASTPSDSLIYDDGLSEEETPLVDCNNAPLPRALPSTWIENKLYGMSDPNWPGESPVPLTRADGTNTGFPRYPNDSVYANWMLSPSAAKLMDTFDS
# UniProt P07949, whole entry M918T, looked up: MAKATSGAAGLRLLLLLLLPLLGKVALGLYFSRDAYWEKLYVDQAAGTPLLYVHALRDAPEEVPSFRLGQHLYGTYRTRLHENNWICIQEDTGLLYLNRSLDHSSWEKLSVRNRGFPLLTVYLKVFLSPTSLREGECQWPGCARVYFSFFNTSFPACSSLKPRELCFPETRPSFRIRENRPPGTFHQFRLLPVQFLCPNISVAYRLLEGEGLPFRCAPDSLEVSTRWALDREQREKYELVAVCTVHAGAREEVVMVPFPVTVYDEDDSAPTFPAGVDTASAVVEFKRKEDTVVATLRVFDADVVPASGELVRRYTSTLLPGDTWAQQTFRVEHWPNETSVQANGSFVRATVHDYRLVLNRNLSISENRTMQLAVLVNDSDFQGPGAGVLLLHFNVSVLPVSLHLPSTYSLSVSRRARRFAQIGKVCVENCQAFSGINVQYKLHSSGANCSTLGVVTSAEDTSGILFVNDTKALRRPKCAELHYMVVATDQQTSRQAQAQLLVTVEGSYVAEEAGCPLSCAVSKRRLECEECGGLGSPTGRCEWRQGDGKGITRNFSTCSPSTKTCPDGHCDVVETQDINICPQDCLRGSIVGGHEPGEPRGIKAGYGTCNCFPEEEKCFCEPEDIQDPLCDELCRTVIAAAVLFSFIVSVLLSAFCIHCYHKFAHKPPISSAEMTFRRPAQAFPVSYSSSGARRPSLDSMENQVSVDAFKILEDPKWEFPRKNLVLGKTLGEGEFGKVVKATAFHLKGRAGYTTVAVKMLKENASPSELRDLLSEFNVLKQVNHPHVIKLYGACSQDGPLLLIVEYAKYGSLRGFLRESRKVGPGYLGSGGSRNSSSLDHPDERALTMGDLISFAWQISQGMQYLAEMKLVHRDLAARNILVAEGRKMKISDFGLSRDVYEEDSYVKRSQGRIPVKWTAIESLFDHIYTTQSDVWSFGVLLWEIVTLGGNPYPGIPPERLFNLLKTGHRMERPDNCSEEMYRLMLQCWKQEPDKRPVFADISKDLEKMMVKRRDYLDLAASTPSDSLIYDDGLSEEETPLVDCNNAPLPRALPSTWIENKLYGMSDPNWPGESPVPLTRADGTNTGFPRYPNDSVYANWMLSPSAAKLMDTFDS
# UniProt Q9BRS2: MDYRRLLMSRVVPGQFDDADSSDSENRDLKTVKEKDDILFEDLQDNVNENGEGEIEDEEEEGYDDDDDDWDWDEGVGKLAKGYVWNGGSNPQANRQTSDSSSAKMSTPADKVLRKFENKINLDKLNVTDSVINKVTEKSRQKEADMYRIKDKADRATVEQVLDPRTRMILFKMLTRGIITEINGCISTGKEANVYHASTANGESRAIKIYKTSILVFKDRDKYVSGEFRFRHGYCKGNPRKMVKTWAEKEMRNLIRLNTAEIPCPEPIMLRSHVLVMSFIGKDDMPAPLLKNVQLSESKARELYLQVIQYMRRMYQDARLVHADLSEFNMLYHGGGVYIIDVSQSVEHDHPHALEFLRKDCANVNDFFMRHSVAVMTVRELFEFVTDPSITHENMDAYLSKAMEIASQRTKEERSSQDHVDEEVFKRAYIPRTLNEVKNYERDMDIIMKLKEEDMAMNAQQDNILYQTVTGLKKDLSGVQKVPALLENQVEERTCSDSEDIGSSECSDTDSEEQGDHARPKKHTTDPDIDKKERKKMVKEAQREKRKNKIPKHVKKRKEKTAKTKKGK
# UniProt Q13546: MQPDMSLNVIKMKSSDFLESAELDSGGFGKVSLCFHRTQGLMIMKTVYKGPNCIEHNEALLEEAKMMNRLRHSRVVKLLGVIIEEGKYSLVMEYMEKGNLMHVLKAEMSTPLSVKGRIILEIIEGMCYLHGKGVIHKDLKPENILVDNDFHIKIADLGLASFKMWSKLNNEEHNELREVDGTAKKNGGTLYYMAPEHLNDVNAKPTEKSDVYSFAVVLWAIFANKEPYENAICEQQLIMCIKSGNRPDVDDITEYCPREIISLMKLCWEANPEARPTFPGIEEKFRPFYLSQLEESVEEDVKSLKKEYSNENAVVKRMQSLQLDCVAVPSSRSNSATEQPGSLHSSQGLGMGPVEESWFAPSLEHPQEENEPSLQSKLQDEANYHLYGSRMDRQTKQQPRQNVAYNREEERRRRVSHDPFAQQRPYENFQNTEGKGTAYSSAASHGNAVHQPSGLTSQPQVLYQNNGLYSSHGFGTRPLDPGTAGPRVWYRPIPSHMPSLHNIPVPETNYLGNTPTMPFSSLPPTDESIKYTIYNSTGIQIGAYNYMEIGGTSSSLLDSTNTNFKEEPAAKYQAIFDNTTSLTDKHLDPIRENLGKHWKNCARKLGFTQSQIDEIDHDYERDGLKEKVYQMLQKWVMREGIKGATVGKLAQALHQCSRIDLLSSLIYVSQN
# UniProt Q01974, whole entry: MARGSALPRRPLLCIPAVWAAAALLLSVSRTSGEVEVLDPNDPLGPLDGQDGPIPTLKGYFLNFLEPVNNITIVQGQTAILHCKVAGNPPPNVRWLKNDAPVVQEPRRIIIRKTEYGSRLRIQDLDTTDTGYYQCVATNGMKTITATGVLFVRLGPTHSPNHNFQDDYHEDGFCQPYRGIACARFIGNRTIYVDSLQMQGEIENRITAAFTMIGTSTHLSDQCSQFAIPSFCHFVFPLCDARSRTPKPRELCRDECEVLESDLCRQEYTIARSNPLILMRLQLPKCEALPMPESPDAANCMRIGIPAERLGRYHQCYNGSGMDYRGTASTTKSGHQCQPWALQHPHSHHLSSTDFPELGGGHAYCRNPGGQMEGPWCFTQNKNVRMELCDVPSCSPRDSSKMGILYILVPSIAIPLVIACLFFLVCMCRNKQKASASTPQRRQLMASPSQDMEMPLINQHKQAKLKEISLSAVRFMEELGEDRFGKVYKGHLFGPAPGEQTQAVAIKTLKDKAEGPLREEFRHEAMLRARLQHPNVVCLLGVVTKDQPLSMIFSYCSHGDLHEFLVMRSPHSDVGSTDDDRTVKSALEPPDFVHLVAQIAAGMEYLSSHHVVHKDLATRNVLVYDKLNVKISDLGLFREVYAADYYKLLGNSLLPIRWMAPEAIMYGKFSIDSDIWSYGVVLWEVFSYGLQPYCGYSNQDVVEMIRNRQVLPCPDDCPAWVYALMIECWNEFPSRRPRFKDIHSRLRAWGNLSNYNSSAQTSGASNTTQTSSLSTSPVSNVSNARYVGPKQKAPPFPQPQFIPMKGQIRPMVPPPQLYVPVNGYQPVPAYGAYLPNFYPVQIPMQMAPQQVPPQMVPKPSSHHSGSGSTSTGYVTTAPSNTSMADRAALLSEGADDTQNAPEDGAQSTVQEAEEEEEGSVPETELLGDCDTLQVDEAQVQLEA
# UniProt Q15418, whole entry: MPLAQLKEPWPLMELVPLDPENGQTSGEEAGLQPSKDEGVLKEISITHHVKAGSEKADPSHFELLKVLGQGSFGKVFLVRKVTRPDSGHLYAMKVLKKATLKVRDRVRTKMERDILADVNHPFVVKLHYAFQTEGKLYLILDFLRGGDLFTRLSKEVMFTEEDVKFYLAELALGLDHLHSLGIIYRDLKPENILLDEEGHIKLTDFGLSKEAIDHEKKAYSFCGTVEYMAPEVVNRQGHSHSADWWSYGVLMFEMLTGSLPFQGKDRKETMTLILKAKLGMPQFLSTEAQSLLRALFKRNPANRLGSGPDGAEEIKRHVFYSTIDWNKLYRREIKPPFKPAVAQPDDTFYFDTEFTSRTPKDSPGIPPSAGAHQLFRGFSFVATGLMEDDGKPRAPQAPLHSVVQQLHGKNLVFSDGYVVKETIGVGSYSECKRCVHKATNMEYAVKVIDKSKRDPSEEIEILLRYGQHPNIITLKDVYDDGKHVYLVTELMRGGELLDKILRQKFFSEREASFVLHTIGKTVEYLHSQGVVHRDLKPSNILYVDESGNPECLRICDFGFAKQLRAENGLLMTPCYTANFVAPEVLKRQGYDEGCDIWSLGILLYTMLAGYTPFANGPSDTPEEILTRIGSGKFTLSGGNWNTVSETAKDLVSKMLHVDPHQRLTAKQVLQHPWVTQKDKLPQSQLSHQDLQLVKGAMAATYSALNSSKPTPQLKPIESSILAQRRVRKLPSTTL
# UniProt Q9NYA1, whole entry: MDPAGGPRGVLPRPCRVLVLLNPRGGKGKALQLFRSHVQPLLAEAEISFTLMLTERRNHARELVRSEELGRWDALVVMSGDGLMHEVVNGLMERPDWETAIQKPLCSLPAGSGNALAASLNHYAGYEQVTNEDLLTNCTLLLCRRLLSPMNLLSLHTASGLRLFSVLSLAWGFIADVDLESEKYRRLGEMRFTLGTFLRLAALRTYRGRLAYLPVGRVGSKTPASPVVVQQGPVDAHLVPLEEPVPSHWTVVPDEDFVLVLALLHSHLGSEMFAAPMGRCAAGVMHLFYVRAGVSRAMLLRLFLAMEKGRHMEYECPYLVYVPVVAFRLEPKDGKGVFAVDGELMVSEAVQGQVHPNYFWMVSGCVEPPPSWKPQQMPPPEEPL
# UniProt Q9Y6E0: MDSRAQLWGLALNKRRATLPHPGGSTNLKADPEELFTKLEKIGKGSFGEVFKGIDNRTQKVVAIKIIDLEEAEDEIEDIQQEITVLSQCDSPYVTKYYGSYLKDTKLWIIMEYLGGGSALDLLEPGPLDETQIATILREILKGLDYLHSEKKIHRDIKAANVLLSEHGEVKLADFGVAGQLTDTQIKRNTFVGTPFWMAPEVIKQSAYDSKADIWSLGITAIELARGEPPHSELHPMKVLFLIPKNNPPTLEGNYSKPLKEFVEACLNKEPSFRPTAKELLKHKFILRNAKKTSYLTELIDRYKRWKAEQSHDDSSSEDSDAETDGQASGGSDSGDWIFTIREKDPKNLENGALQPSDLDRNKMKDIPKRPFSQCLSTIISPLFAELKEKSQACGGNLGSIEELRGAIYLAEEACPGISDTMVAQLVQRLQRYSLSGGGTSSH
# Where a name gives a salt, the structure may show the parent alone. Some of the results follow. Hit calls seldom repeat between salt and free forms of one compound.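 Kinases were expressed as nanoluciferase fusions in K562 cells and luminescence was read every 4 h between 2 and 18 h as percent of control, DMSO set to 100% and a positive control to 0%. A time point counts as decreased when the signal drops significantly (2 sigma). The hit call is the authors' own, does not follow from the count of time points alone, and its rule is not shown.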
# How the values were obtained:
# Assay in all cases: kinase-Nluc reporter destabilization hit call (1 = scored as downregulated) (binary); higher = compound decreases kinase abundance
# Settings in all cases: K562; 2-18 h
# RET = RET (UniProt P07949)
# [1] = target: RET_M918T (clone: RET_mut) (UniProt P07949)
# RIOK1 = RIOK1 (UniProt Q9BRS2)
# RIPK1 = RIPK1 (UniProt Q13546)
# RIPK2 = RIPK2 (UniProt O43353)
# ROR2 = ROR2 (UniProt Q01974)
# RPS6KA1 = RPS6KA1 (UniProt Q15418)
# SPHK1 = SPHK1 (UniProt Q9NYA1)
# SRC = SRC (UniProt P12931)
# STK24 = STK24 (UniProt Q9Y6E0)
Compound,kinase-Nluc reporter destabilization hit call (RET),kinase-Nluc reporter destabilization hit call [1],kinase-Nluc reporter destabilization hit call (RIOK1),kinase-Nluc reporter destabilization hit call (RIPK1),kinase-Nluc reporter destabilization hit call (RIPK2),kinase-Nluc reporter destabilization hit call (ROR2),kinase-Nluc reporter destabilization hit call (RPS6KA1),kinase-Nluc reporter destabilization hit call (SPHK1),kinase-Nluc reporter destabilization hit call (SRC),kinase-Nluc reporter destabilization hit call (STK24)
Cc1ccc(NC(=O)N2CCN(c3nc(N)nc4sc(-c5cccnc5)nc34)CC2)cc1 [PI4KIII beta inhibitor 3] (10 µM),inactive: 0,inactive: 0,inactive: 0,inactive: 0,inactive: 0,inactive: 0,inactive: 0,inactive: 0,inactive: 0,inactive: 0
CC(C)(C)S(=O)(=O)c1cc2c(Nc3ccc4scnc4c3)ncnc2cc1OCCOP(=O)(O)O (2 µM),inactive: 0,inactive: 0,inactive: 0,inactive: 0,active: 1,inactive: 0,inactive: 0,inactive: 0,inactive: 0,inactive: 0
COc1ccc(Cl)cc1N(CC(=O)Nc1ccc2c(c1)OCO2)S(=O)(=O)c1ccccc1 (2.5 µM),inactive: 0,inactive: 0,inactive: 0,inactive: 0,inactive: 0,inactive: 0,inactive: 0,inactive: 0,inactive: 0,inactive: 0
CNCCOc1ccccc1C1(Nc2nccn(-c3cc(C(=O)NC4CC4)cc(F)c3C)c2=O)CC1 (10 µM),inactive: 0,inactive: 0,inactive: 0,inactive: 0,inactive: 0,inactive: 0,inactive: 0,inactive: 0,inactive: 0,inactive: 0
C=CC(=O)Nc1cc(Nc2nccc(-c3cn(C)c4ccccc34)n2)c(OCC(F)(F)F)nc1N(C)CCNC [AST5902  (trimesylate)] (2.5 µM),inactive: 0,inactive: 0,inactive: 0,inactive: 0,inactive: 0,inactive: 0,inactive: 0,inactive: 0,inactive: 0,inactive: 0
CCc1c(C(=O)NNC(=O)[C@H](O)c2cc(F)cc(F)c2)ccc(O)c1C (10 µM),inactive: 0,inactive: 0,inactive: 0,inactive: 0,inactive: 0,inactive: 0,inactive: 0,inactive: 0,inactive: 0,inactive: 0
CN1CCN(Cc2ccc(-c3cn(C4CCC(O)CC4)c4nc(NCCC5CC5)ncc34)cc2)CC1 (stereo unspecified) (2.5 µM),inactive: 0,inactive: 0,inactive: 0,inactive: 0,inactive: 0,inactive: 0,inactive: 0,inactive: 0,inactive: 0,inactive: 0
O=c1cc(-c2ccc(O[C@@H]3O[C@H](CO)[C@@H](O)[C@H](O)[C@H]3O)cc2)oc2cc(O)c([C@@H]3O[C@H](CO)[C@@H](O)[C@H](O)[C@H]3O[C@@H]3OC[C@H](O)[C@H](O)[C@H]3O)c(O)c12 [Vaccarin] (10 µM),inactive: 0,inactive: 0,inactive: 0,inactive: 0,inactive: 0,inactive: 0,inactive: 0,inactive: 0,inactive: 0,inactive: 0
CS(=O)(=O)c1cccc(CNc2nc(Nc3ccc4c(c3)CCC(=O)N4)ncc2C(F)(F)F)c1 (10 µM),inactive: 0,inactive: 0,inactive: 0,inactive: 0,inactive: 0,inactive: 0,inactive: 0,inactive: 0,inactive: 0,inactive: 0
O=CN1CCN(c2ccc(C=C3C(=O)Nc4ccccc43)cc2)CC1 (10 µM),inactive: 0,inactive: 0,inactive: 0,inactive: 0,inactive: 0,inactive: 0,inactive: 0,inactive: 0,inactive: 0,inactive: 0
CN1CCC(Nc2nc(Nc3ccc(Oc4ccccc4)cc3)c3c(=O)[nH]cc(Br)c3n2)CC1 (2.5 µM),inactive: 0,inactive: 0,inactive: 0,inactive: 0,inactive: 0,inactive: 0,inactive: 0,inactive: 0,inactive: 0,inactive: 0
Cc1nc(Nc2cnn(C3CCNCC3)c2)nc2c1N(C)C(=O)c1cc3ccccc3cc1N2C (2.5 µM),inactive: 0,inactive: 0,inactive: 0,inactive: 0,inactive: 0,inactive: 0,inactive: 0,inactive: 0,inactive: 0,inactive: 0
C=CC(=O)Nc1cccc(Oc2nc(Nc3ccc(N4CCN(C)CC4)cc3OC)ncc2Cl)c1 (10 µM),inactive: 0,inactive: 0,inactive: 0,inactive: 0,inactive: 0,inactive: 0,inactive: 0,inactive: 0,inactive: 0,inactive: 0
Cc1nc2c(NCc3cccc(S(C)(=O)=O)c3)nccn2c1-c1ccc(O)c(F)c1 (10 µM),inactive: 0,inactive: 0,inactive: 0,inactive: 0,inactive: 0,inactive: 0,inactive: 0,inactive: 0,inactive: 0,inactive: 0
CN1CCN(c2ccc(-n3cc(-c4ccncc4OCC4CCNCC4)cn3)cc2)CC1 [MELK-8a (hydrochloride)] (10 µM),inactive: 0,inactive: 0,inactive: 0,inactive: 0,inactive: 0,inactive: 0,inactive: 0,inactive: 0,inactive: 0,inactive: 0
Nc1ccc(C(=O)Nc2cccc(-c3nc(N4CCOCC4)c4oc5ncccc5c4n3)c2)cn1 (10 µM),inactive: 0,inactive: 0,inactive: 0,inactive: 0,inactive: 0,inactive: 0,inactive: 0,inactive: 0,inactive: 0,inactive: 0
COc1cc2nnc(C(N)=O)c(Nc3ccc(C)cc3F)c2cc1N1CCN(CCO)CC1 (2.5 µM),inactive: 0,inactive: 0,inactive: 0,inactive: 0,inactive: 0,inactive: 0,inactive: 0,inactive: 0,inactive: 0,inactive: 0
COc1ccc(Br)c(C=O)c1O [6-Bromo-2-hydroxy-3-methoxybenzaldehyde] (10 µM),inactive: 0,inactive: 0,inactive: 0,inactive: 0,inactive: 0,inactive: 0,inactive: 0,inactive: 0,inactive: 0,inactive: 0

# No new results follow: two of the compounds above.
Compound,kinase-Nluc reporter destabilization hit call (RET),kinase-Nluc reporter destabilization hit call [1],kinase-Nluc reporter destabilization hit call (RIOK1),kinase-Nluc reporter destabilization hit call (RIPK1),kinase-Nluc reporter destabilization hit call (RIPK2),kinase-Nluc reporter destabilization hit call (ROR2),kinase-Nluc reporter destabilization hit call (RPS6KA1),kinase-Nluc reporter destabilization hit call (SPHK1),kinase-Nluc reporter destabilization hit call (SRC),kinase-Nluc reporter destabilization hit call (STK24)
Cc1nc(Nc2cnn(C3CCNCC3)c2)nc2c1N(C)C(=O)c1cc3ccccc3cc1N2C (2.5 µM),inactive: 0,inactive: 0,inactive: 0,inactive: 0,inactive: 0,inactive: 0,inactive: 0,inactive: 0,inactive: 0,inactive: 0
C=CC(=O)Nc1cccc(Oc2nc(Nc3ccc(N4CCN(C)CC4)cc3OC)ncc2Cl)c1 (10 µM),inactive: 0,inactive: 0,inactive: 0,inactive: 0,inactive: 0,inactive: 0,inactive: 0,inactive: 0,inactive: 0,inactive: 0

# More compounds

Compound,kinase-Nluc reporter destabilization hit call (RET),kinase-Nluc reporter destabilization hit call [1],kinase-Nluc reporter destabilization hit call (RIOK1),kinase-Nluc reporter destabilization hit call (RIPK1),kinase-Nluc reporter destabilization hit call (RIPK2),kinase-Nluc reporter destabilization hit call (ROR2),kinase-Nluc reporter destabilization hit call (RPS6KA1),kinase-Nluc reporter destabilization hit call (SPHK1),kinase-Nluc reporter destabilization hit call (SRC),kinase-Nluc reporter destabilization hit call (STK24)
COc1cc2nc(NC3CC3)nc(NC3CCN(C(C)C)CC3)c2cc1OC (10 µM),inactive: 0,inactive: 0,inactive: 0,inactive: 0,inactive: 0,inactive: 0,inactive: 0,inactive: 0,inactive: 0,inactive: 0
CC/C(=C(\c1ccccc1)c1ccc(OCCNC)cc1)c1ccccc1 [N-Desmethyltamoxifen (hydrochloride)] (2.5 µM),inactive: 0,inactive: 0,inactive: 0,inactive: 0,inactive: 0,inactive: 0,inactive: 0,inactive: 0,inactive: 0,inactive: 0
CS(=O)(=O)c1ccc([C@@H](CC2CCCC2)C(=O)Nc2nccs2)cc1 (10 µM),inactive: 0,inactive: 0,inactive: 0,inactive: 0,inactive: 0,inactive: 0,inactive: 0,inactive: 0,inactive: 0,inactive: 0
O=C1Cc2ccccc2N1 [Oxindole] (10 µM),inactive: 0,inactive: 0,inactive: 0,inactive: 0,inactive: 0,inactive: 0,inactive: 0,inactive: 0,inactive: 0,inactive: 0
O=C(NC[C@H](O)CO)c1ccncc1Nc1ccc(I)cc1F [Pimasertib] (10 µM),inactive: 0,inactive: 0,inactive: 0,inactive: 0,inactive: 0,inactive: 0,inactive: 0,inactive: 0,inactive: 0,inactive: 0
NCCNS(=O)(=O)c1ccc(Cl)c2ccncc12 [CKI-7 (free base)] (10 µM),inactive: 0,inactive: 0,inactive: 0,inactive: 0,inactive: 0,inactive: 0,inactive: 0,inactive: 0,inactive: 0,inactive: 0
Cc1cccc(-c2nn3c(c2-c2ccnc4ccc(C(N)=O)cc24)CCC3)n1 [Galunisertib] (10 µM),inactive: 0,inactive: 0,inactive: 0,inactive: 0,inactive: 0,inactive: 0,inactive: 0,inactive: 0,inactive: 0,inactive: 0
CC(=O)Nc1nc(C)c(-c2cc(C)c3c(c2)CN([C@@H](C)C2CC2)C3=O)s1 (10 µM),inactive: 0,inactive: 0,inactive: 0,inactive: 0,inactive: 0,inactive: 0,inactive: 0,inactive: 0,inactive: 0,inactive: 0
O=C(C#Cc1ccccc1)c1cccc([N+](=O)[O-])c1 (10 µM),inactive: 0,inactive: 0,inactive: 0,inactive: 0,inactive: 0,inactive: 0,inactive: 0,inactive: 0,inactive: 0,inactive: 0
CC(=O)O[C@@H]1[C@@H](OC(C)=O)[C@@H](O)[C@H](Oc2c(-c3ccc(O)cc3)oc3cc(O)cc(O)c3c2=O)O[C@H]1C (10 µM),inactive: 0,inactive: 0,inactive: 0,inactive: 0,inactive: 0,inactive: 0,inactive: 0,inactive: 0,inactive: 0,inactive: 0
Cn1c(N2CCO[C@@H](c3ccc(F)cc3)C2)nc(-c2ccncn2)cc1=O (10 µM),inactive: 0,inactive: 0,inactive: 0,inactive: 0,inactive: 0,inactive: 0,inactive: 0,inactive: 0,inactive: 0,inactive: 0
CCOC(=O)c1c(C)[nH]c(C=C2C(=O)Nc3ccccc32)c1C (10 µM),inactive: 0,inactive: 0,inactive: 0,inactive: 0,inactive: 0,inactive: 0,inactive: 0,inactive: 0,inactive: 0,inactive: 0
CC1=CC(=O)C(C(C)C)=C/C1=N/OC(=O)c1ccccc1C [Poloxin] (2.5 µM),inactive: 0,inactive: 0,inactive: 0,inactive: 0,inactive: 0,inactive: 0,inactive: 0,inactive: 0,inactive: 0,inactive: 0
NC(=O)c1cnc(N[C@@H]2CCCC[C@@H]2N)nc1Nc1cccc(-n2nccn2)c1 (2.5 µM),inactive: 0,inactive: 0,inactive: 0,inactive: 0,inactive: 0,inactive: 0,inactive: 0,inactive: 0,inactive: 0,inactive: 0
CN(C[C@@H]1COCCO1)S(=O)(=O)Nc1ccc2ccc3ncc(-c4cnn(C)c4)cc3c(=O)c2c1 (2.5 µM),,,inactive: 0,inactive: 0,inactive: 0,inactive: 0,inactive: 0,inactive: 0,inactive: 0,inactive: 0
CCOc1cc(=O)[nH]cc1-c1ccc(CC(=O)Nc2cc(C(C)(C)C(F)(F)F)on2)c(F)c1 (10 µM),,,inactive: 0,inactive: 0,inactive: 0,inactive: 0,inactive: 0,inactive: 0,inactive: 0,inactive: 0
C[C@@H]1COC(Nc2ccc3ncnc(Nc4ccc(OCc5nccs5)c(Cl)c4)c3c2)=N1 [Varlitinib] (10 µM),inactive: 0,inactive: 0,inactive: 0,inactive: 0,inactive: 0,inactive: 0,inactive: 0,inactive: 0,inactive: 0,inactive: 0
COc1cc(Nc2ccnc3ccc(Br)cc23)cc(OC)c1OC (2.5 µM),inactive: 0,inactive: 0,inactive: 0,inactive: 0,inactive: 0,inactive: 0,inactive: 0,inactive: 0,inactive: 0,inactive: 0
